Differences between knockout arms are mostly noise.
Tested on: SKBR3
Experiment: relative cell number vs DMSO control (72 h) (% of DMSO); higher = less growth inhibition (more cells)
Experimental: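 QMAP-Seq: a pool of 5 breast cancer cell lines (ZR-75-1, SKBR3, HCC-38, MDA-MB-231, BT-20), each carrying 12 doxycycline-inducible Cas9 sgRNA perturbations (11 knockouts plus non-targeting sgNT), was treated with compounds for 72 h at four 10-fold doses (10 nM-10 uM or 1 nM-1 uM range). Barcodes were amplified and sequenced, and cell number was interpolated from 293T spike-in standard curves. The result is expressed as % of the median of DMSO wells. Two biological replicates.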

CNC(=O)c1cc(Oc2ccc(NC(=O)Nc3ccc(Cl)c(C(F)(F)F)c3)c(F)c2)ccn1 [Regorafenib]
Details | relative cell number
sgRNA knockout: sgATF3, 10 nM | 102
sgRNA knockout: sgATF3, 100 nM | 108
sgRNA knockout: sgATF3, 1000 nM | 122
sgRNA knockout: sgATF3, 10000 nM | 40.5
sgRNA knockout: sgATF4, 10 nM | 98.7
sgRNA knockout: sgATF4, 100 nM | 99.3
sgRNA knockout: sgATF4, 1000 nM | 96.9
sgRNA knockout: sgATF4, 10000 nM | 35.8
sgRNA knockout: sgATF6, 10 nM | 97.1
sgRNA knockout: sgATF6, 100 nM | 129
sgRNA knockout: sgATF6, 1000 nM | 107
sgRNA knockout: sgATF6, 10000 nM | 32.3
sgRNA knockout: sgATG7, 10 nM | 95.2
sgRNA knockout: sgATG7, 100 nM | 109
sgRNA knockout: sgATG7, 1000 nM | 128
sgRNA knockout: sgATG7, 10000 nM | 40.4
sgRNA knockout: sgERN1, 10 nM | 96.9
sgRNA knockout: sgERN1, 100 nM | 93
sgRNA knockout: sgERN1, 1000 nM | 116
sgRNA knockout: sgERN1, 10000 nM | 54.5
sgRNA knockout: sgHSF1, 10 nM | 97.6
sgRNA knockout: sgHSF1, 100 nM | 113
sgRNA knockout: sgHSF1, 1000 nM | 111
sgRNA knockout: sgHSF1, 10000 nM | 38.9
sgRNA knockout: sgHSF2, 10 nM | 88.1
sgRNA knockout: sgHSF2, 100 nM | 97.9
sgRNA knockout: sgHSF2, 1000 nM | 118
sgRNA knockout: sgHSF2, 10000 nM | 36.8
sgRNA knockout: sgKEAP1, 10 nM | 81.1
sgRNA knockout: sgKEAP1, 100 nM | 107
sgRNA knockout: sgKEAP1, 1000 nM | 113
sgRNA knockout: sgKEAP1, 10000 nM | 34.7
sgRNA knockout: sgNFE2L2, 10 nM | 110
sgRNA knockout: sgNFE2L2, 100 nM | 110
sgRNA knockout: sgNFE2L2, 1000 nM | 102
sgRNA knockout: sgNFE2L2, 10000 nM | 37.5
sgRNA knockout: sgSLC35F2, 10 nM | 92.2
sgRNA knockout: sgSLC35F2, 100 nM | 99.9
sgRNA knockout: sgSLC35F2, 1000 nM | 99.3
sgRNA knockout: sgSLC35F2, 10000 nM | 36.7
sgRNA knockout: sgXBP1, 10 nM | 128
sgRNA knockout: sgXBP1, 100 nM | 107
sgRNA knockout: sgXBP1, 1000 nM | 122
sgRNA knockout: sgXBP1, 10000 nM | 49.5

O=c1[nH]cc(F)c(=O)[nH]1 [5-Fluorouracil]
Details | relative cell number
sgRNA knockout: sgATF3, 10 nM | 109
sgRNA knockout: sgATF3, 100 nM | 99
sgRNA knockout: sgATF3, 1000 nM | 72.2
sgRNA knockout: sgATF3, 10000 nM | 33.3
sgRNA knockout: sgATF4, 10 nM | 96.3
sgRNA knockout: sgATF4, 100 nM | 106
sgRNA knockout: sgATF4, 1000 nM | 73
sgRNA knockout: sgATF4, 10000 nM | 27.9
sgRNA knockout: sgATF6, 10 nM | 102
sgRNA knockout: sgATF6, 100 nM | 96.6
sgRNA knockout: sgATF6, 1000 nM | 66
sgRNA knockout: sgATF6, 10000 nM | 26
sgRNA knockout: sgATG7, 10 nM | 115
sgRNA knockout: sgATG7, 100 nM | 103
sgRNA knockout: sgATG7, 1000 nM | 62.6
sgRNA knockout: sgATG7, 10000 nM | 27.42
sgRNA knockout: sgERN1, 10 nM | 87.31
sgRNA knockout: sgERN1, 100 nM | 125
sgRNA knockout: sgERN1, 1000 nM | 73.5
sgRNA knockout: sgERN1, 10000 nM | 25.4
sgRNA knockout: sgHSF1, 10 nM | 84.7
sgRNA knockout: sgHSF1, 100 nM | 91.9
sgRNA knockout: sgHSF1, 1000 nM | 78.4
sgRNA knockout: sgHSF1, 10000 nM | 30.1
sgRNA knockout: sgHSF2, 10 nM | 87.8
sgRNA knockout: sgHSF2, 100 nM | 118
sgRNA knockout: sgHSF2, 1000 nM | 71.1
sgRNA knockout: sgHSF2, 10000 nM | 26.7
sgRNA knockout: sgKEAP1, 10 nM | 90.2
sgRNA knockout: sgKEAP1, 100 nM | 99.3
sgRNA knockout: sgKEAP1, 1000 nM | 56.7
sgRNA knockout: sgKEAP1, 10000 nM | 22.6
sgRNA knockout: sgNFE2L2, 10 nM | 96.15
sgRNA knockout: sgNFE2L2, 100 nM | 116
sgRNA knockout: sgNFE2L2, 1000 nM | 72.7
sgRNA knockout: sgNFE2L2, 10000 nM | 33
sgRNA knockout: sgSLC35F2, 10 nM | 93.6
sgRNA knockout: sgSLC35F2, 100 nM | 91.2
sgRNA knockout: sgSLC35F2, 1000 nM | 72.9
sgRNA knockout: sgSLC35F2, 10000 nM | 24
sgRNA knockout: sgXBP1, 10 nM | 92.7
sgRNA knockout: sgXBP1, 100 nM | 86.7
sgRNA knockout: sgXBP1, 1000 nM | 62.37
sgRNA knockout: sgXBP1, 10000 nM | 25

O=P1(N(CCCl)CCCl)NCCCO1 (configuration not stated) [Cyclophosphamide]
Details | relative cell number
sgRNA knockout: sgATF3, 10 nM | 89.8
sgRNA knockout: sgATF3, 100 nM | 109
sgRNA knockout: sgATF3, 1000 nM | 117
sgRNA knockout: sgATF3, 10000 nM | 82
sgRNA knockout: sgATF4, 10 nM | 119
sgRNA knockout: sgATF4, 100 nM | 94.6
sgRNA knockout: sgATF4, 1000 nM | 74.7
sgRNA knockout: sgATF4, 10000 nM | 78.3
sgRNA knockout: sgATF6, 10 nM | 109
sgRNA knockout: sgATF6, 100 nM | 89.3
sgRNA knockout: sgATF6, 1000 nM | 99.2
sgRNA knockout: sgATF6, 10000 nM | 76.5
sgRNA knockout: sgATG7, 10 nM | 94.3
sgRNA knockout: sgATG7, 100 nM | 85
sgRNA knockout: sgATG7, 1000 nM | 96
sgRNA knockout: sgATG7, 10000 nM | 92.5
sgRNA knockout: sgERN1, 10 nM | 84.6
sgRNA knockout: sgERN1, 100 nM | 94.1
sgRNA knockout: sgERN1, 1000 nM | 76.3
sgRNA knockout: sgERN1, 10000 nM | 89.4
sgRNA knockout: sgHSF1, 10 nM | 90.1
sgRNA knockout: sgHSF1, 100 nM | 97.01
sgRNA knockout: sgHSF1, 1000 nM | 78.7
sgRNA knockout: sgHSF1, 10000 nM | 107
sgRNA knockout: sgHSF2, 10 nM | 85.9
sgRNA knockout: sgHSF2, 100 nM | 75.9
sgRNA knockout: sgHSF2, 1000 nM | 94.6
sgRNA knockout: sgHSF2, 10000 nM | 86.68
sgRNA knockout: sgKEAP1, 10 nM | 108
sgRNA knockout: sgKEAP1, 100 nM | 84.4
sgRNA knockout: sgKEAP1, 1000 nM | 80
sgRNA knockout: sgKEAP1, 10000 nM | 84.9
sgRNA knockout: sgNFE2L2, 10 nM | 91.9
sgRNA knockout: sgNFE2L2, 100 nM | 102
sgRNA knockout: sgNFE2L2, 1000 nM | 94.6
sgRNA knockout: sgNFE2L2, 10000 nM | 94.6
sgRNA knockout: sgSLC35F2, 10 nM | 88.1
sgRNA knockout: sgSLC35F2, 100 nM | 99.8
sgRNA knockout: sgSLC35F2, 1000 nM | 95.6
sgRNA knockout: sgSLC35F2, 10000 nM | 91.11
sgRNA knockout: sgXBP1, 10 nM | 118
sgRNA knockout: sgXBP1, 100 nM | 98.4
sgRNA knockout: sgXBP1, 1000 nM | 92
sgRNA knockout: sgXBP1, 10000 nM | 88.5

From the supplement of paper PMC7661543
